Reference: the supplement of paper PMC6411743
± gives the standard deviation of the averaged measurements. This is a selection; strong and weak results do not stand in their true shares.

Sequences of proteins named here, by UniProt entry; tags and fusion partners are left off. A change or cut given only in a name is not applied to a line headed by its entry.
UniProt Q9NZ32, whole entry: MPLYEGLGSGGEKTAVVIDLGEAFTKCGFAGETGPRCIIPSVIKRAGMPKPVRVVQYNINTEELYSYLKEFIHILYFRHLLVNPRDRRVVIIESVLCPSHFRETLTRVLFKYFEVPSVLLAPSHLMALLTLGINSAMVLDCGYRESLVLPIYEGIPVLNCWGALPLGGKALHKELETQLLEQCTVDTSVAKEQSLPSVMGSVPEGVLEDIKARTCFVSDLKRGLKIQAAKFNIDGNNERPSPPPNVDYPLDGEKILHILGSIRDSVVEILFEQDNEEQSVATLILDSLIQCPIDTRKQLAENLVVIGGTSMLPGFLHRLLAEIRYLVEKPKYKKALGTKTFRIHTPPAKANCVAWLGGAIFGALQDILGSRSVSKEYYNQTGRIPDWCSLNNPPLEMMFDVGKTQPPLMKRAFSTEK
UniProt Q9UBM7: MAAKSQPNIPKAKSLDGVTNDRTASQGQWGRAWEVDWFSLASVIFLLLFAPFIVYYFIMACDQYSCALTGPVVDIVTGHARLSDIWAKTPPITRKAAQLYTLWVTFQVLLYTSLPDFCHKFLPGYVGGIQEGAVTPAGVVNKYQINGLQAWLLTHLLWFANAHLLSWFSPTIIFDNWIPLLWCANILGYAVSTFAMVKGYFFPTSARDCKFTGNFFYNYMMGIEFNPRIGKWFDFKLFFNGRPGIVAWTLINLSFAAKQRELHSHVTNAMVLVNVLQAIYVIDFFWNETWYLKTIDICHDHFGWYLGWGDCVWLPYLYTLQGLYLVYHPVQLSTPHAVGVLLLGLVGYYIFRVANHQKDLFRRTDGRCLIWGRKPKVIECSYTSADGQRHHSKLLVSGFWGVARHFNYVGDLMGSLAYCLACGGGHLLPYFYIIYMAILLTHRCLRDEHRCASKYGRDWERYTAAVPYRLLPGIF
UniProt Q9NVZ3: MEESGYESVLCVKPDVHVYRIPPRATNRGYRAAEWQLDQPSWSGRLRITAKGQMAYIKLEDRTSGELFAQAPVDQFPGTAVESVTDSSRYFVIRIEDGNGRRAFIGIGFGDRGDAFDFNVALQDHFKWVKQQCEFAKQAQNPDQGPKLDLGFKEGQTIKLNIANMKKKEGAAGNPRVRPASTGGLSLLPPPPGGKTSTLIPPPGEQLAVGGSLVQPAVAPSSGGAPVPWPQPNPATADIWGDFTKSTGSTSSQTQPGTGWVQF
UniProt Q9NUB1: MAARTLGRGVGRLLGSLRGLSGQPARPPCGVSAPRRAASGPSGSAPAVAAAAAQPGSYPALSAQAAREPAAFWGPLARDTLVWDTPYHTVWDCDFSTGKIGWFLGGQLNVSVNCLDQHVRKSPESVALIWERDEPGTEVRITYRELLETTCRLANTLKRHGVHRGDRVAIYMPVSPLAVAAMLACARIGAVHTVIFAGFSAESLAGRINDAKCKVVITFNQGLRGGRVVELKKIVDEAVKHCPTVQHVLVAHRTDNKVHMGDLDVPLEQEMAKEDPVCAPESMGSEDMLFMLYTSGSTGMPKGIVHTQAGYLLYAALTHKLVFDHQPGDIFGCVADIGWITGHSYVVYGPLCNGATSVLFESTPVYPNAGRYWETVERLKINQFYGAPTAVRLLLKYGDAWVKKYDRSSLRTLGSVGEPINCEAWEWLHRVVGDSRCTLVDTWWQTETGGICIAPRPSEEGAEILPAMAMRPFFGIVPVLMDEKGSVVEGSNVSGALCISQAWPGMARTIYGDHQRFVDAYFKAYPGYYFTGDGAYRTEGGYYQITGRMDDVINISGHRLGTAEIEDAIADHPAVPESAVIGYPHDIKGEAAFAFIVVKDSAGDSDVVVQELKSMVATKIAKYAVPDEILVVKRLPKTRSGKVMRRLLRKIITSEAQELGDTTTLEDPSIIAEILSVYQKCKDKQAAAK
UniProt Q9NQ34: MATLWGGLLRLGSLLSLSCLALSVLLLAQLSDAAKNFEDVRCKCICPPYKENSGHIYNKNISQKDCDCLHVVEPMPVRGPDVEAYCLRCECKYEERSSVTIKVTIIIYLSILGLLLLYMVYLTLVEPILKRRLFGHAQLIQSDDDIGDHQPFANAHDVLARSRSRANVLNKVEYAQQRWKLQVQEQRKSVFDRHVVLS
UniProt Q9NRP2: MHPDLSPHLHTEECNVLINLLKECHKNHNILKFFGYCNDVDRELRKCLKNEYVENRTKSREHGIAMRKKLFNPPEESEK
UniProt Q9NWF9: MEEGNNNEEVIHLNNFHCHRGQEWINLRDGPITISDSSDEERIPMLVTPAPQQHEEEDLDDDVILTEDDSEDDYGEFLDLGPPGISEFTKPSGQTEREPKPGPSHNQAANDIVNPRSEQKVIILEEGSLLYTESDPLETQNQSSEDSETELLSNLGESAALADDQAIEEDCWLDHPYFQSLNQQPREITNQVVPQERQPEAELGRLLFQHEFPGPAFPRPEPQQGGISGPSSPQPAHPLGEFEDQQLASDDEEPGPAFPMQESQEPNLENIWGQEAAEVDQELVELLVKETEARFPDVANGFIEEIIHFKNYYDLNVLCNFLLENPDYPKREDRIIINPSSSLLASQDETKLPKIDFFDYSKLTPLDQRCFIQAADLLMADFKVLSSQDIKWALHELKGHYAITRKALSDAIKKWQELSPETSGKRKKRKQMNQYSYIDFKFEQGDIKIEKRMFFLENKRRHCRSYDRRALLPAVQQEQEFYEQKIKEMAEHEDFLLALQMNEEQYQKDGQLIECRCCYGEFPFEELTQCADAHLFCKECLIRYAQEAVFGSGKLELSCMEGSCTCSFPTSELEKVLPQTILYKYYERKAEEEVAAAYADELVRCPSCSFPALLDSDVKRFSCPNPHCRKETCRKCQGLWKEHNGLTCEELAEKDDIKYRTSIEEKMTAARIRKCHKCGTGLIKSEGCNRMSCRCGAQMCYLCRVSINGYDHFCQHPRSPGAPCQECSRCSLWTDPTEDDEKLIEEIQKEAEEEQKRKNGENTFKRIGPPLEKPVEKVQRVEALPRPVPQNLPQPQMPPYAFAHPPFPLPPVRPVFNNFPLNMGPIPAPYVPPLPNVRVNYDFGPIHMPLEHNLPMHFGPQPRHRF
UniProt Q9NZB8: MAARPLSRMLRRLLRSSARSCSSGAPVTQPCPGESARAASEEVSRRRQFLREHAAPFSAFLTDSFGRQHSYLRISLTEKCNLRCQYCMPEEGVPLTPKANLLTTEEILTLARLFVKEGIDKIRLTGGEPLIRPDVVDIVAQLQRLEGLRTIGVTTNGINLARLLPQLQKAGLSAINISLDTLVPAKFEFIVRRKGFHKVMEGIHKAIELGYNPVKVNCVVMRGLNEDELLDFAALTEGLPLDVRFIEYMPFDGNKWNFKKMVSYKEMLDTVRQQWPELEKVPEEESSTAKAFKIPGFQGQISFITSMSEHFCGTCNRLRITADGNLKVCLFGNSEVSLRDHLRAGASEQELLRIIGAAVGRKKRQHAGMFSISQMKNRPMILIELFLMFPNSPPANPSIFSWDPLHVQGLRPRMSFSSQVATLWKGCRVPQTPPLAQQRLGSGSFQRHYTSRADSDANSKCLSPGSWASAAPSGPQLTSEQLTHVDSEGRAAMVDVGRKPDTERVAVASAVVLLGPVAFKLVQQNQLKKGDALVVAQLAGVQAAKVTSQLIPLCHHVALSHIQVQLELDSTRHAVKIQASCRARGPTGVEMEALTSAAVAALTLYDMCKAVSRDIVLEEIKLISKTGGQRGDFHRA
UniProt Q9NV56, whole entry: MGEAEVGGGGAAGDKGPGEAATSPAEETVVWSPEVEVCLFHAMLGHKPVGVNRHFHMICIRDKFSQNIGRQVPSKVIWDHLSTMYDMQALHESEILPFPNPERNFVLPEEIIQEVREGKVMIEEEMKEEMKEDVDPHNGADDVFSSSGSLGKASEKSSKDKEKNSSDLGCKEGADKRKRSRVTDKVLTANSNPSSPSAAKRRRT
UniProt Q9P2J5: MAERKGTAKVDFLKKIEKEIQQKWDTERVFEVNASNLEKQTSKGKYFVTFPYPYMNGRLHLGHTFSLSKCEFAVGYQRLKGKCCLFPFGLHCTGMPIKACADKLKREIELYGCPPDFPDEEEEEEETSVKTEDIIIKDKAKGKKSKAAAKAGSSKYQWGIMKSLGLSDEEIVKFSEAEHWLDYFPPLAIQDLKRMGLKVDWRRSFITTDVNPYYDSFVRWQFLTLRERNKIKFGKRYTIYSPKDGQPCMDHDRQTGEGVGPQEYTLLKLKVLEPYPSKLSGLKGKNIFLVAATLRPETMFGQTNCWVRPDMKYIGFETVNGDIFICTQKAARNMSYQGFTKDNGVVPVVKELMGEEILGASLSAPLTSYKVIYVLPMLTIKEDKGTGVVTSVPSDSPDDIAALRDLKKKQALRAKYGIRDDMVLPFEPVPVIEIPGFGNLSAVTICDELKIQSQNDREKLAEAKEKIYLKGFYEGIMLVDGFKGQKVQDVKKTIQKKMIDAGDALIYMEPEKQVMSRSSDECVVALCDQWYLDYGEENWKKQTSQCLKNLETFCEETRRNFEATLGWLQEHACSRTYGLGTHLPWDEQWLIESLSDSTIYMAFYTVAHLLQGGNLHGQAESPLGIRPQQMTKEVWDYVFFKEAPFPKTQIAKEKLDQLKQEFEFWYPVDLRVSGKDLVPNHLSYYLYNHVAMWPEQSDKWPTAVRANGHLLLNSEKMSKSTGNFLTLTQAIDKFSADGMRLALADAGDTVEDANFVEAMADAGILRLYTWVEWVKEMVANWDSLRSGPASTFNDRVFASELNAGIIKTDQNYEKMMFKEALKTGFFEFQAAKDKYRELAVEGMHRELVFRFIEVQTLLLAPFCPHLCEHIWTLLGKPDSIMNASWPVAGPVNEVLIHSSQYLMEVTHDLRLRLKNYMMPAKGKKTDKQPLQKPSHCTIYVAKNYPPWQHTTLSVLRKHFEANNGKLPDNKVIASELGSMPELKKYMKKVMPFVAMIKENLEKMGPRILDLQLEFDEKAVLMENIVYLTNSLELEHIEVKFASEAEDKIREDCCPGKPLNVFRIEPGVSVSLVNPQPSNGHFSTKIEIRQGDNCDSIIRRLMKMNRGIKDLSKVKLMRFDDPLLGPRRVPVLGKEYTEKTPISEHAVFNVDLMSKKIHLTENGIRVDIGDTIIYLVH
UniProt Q9UBL3, whole entry: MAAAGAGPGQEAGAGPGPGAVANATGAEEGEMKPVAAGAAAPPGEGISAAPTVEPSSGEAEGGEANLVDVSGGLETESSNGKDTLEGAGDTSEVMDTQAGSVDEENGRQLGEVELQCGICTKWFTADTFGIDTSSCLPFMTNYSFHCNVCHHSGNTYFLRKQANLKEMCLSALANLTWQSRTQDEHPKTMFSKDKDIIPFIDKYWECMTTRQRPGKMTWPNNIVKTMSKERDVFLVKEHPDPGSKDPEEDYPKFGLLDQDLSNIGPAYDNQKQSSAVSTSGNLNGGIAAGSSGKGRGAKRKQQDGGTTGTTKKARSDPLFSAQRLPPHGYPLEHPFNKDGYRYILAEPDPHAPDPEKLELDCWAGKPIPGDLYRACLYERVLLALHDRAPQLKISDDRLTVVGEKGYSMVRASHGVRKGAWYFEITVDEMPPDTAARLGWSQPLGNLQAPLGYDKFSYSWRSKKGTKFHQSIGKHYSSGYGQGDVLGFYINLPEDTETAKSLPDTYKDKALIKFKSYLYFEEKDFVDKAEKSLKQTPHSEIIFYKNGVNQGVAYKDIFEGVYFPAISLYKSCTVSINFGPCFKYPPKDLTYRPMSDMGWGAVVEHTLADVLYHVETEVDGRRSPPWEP
UniProt Q9NVF7: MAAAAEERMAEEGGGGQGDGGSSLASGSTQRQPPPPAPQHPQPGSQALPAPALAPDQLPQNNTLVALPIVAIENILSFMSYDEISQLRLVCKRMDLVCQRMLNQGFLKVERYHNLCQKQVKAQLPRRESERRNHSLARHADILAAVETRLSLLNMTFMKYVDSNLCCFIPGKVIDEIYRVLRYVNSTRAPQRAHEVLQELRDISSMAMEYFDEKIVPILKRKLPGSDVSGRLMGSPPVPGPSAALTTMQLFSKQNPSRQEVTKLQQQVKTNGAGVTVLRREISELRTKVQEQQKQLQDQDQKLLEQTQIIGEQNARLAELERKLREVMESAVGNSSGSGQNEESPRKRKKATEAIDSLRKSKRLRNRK
UniProt Q9NZW5: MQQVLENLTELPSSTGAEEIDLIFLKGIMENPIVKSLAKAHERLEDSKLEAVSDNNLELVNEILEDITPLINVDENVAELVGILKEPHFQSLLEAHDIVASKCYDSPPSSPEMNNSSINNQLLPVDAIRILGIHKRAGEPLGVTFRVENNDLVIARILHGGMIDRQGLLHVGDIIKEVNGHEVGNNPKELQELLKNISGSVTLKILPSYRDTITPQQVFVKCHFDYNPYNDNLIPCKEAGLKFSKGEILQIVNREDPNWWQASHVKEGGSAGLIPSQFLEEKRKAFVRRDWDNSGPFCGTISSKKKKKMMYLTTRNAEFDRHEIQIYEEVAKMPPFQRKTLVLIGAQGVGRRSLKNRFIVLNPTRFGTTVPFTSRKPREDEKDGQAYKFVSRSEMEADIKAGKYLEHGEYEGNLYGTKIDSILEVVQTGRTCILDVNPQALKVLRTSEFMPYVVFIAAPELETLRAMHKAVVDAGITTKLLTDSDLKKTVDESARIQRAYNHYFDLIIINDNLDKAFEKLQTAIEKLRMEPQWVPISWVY

compound: Nc1ncnc2c1ncn2[C@@H]1O[C@H](COP(=O)(O)OP(=O)(O)NP(=O)(O)O)[C@@H](O)[C@H]1O [adenylyl imidodiphosphate]; experiment: NP40-soluble protein abundance relative to vehicle (solubility fold change) (ratio); higher = more soluble protein in presence of AMP-PNP; conditions: concentration: 1mM
In short: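 Eight concentrations, 0.1 to 10 mM, were tested on Jurkat crude lysate for 10 min at room temperature and then 3 min at 37 °C, in three independent experiments. The lysate was solubilised with 0.8% NP40 and benzonase, ultracentrifuged, and the supernatant TMT-labelled for LC-MS/MS. Each value is the fold change against the detergent-processed vehicle in its own replicate, from vsn-normalised intensities.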

Target | NP40-soluble protein abundance
COMMD9 (UniProt Q9P000) | 1.026 ± 0.0055
TMEM160 (UniProt Q9NX00) | 1 ± 0.039
ACTR10 (UniProt Q9NZ32) | 0.996 ± 0.035
DHCR7 (UniProt Q9UBM7) | 1.04 ± 0.063
UniProt Q9NYU2 and related entries | 0.9826 ± 0.0098
DDX18 (UniProt Q9NVP1) | 1.03 ± 0.045
UniProt Q9P2D3 and related entries | 0.993 ± 0.011
MTPAP (UniProt Q9NVV4) | 0.772 ± 0.042
NECAP2 (UniProt Q9NVZ3) | 1.02 ± 0.026
LYAR (UniProt Q9NX58) | 1.04 ± 0.049
UniProt Q9NUB1 and related entries | 0.948 ± 0.039
HECA (UniProt Q9UBI9) | 0.969 ± 0.029
PHPT1 (UniProt Q9NRX4) | 0.985 ± 0.018
TMEM9B (UniProt Q9NQ34) | 1.01 ± 0.032
UniProt Q9NRP2 and related entries | 1.01 ± 0.021
UniProt Q9NQY0 and related entries | 1.06 ± 0.039
UniProt Q9P0J0 and related entries | 0.912 ± 0.015
UniProt Q9NYF8 and related entries | 1.1 ± 0.018

Target | NP40-soluble protein abundance
UniProt Q9NWF9 and related entries | 0.977 ± 0.016
NANS (UniProt Q9NR45) | 0.981 ± 0.015
DNAJC17 (UniProt Q9NVM6) | 1.06 ± 0.033
UniProt Q9NZB8 and related entries | 0.973 ± 0.026
UniProt Q9NV56 | 1.02 ± 0.062
UniProt Q9NUL5 and related entries | 1.07 ± 0.029
CPSF2 (UniProt Q9P2I0) | 1.01 ± 0.016
NSMCE4A (UniProt Q9NXX6) | 0.993 ± 0.068
UniProt Q9NZJ7 and related entries | 0.964 ± 0.042
MRPL40 (UniProt Q9NQ50) | 0.977 ± 0.082
LANCL2 (UniProt Q9NS86) | 0.975 ± 0.017
UniProt Q9NV88 and related entries | 1.007 ± 0.0074
LARS (UniProt Q9P2J5) | 0.977 ± 0.072
UniProt Q9UBL3 and related entries | 0.995 ± 0.018
IMPAD1 (UniProt Q9NX62) | 1 ± 0.024
FBXO28 (UniProt Q9NVF7) | 1.04 ± 0.0088
MPP6 (UniProt Q9NZW5) | 1.01 ± 0.025
UniProt Q9NZT2 and related entries | 1.01 ± 0.021

same assay, conditions: concentration: 2mM

Target | NP40-soluble protein abundance
COMMD9 (UniProt Q9P000) | 1.02 ± 0.021
TMEM160 (UniProt Q9NX00) | 1.02 ± 0.049
ACTR10 (UniProt Q9NZ32) | 0.957 ± 0.056
DHCR7 (UniProt Q9UBM7) | 1.01 ± 0.06
UniProt Q9NYU2 and related entries | 0.9 ± 0.12
DDX18 (UniProt Q9NVP1) | 1.03 ± 0.013
UniProt Q9P2D3 and related entries | 0.982 ± 0.03
MTPAP (UniProt Q9NVV4) | 0.829 ± 0.033
NECAP2 (UniProt Q9NVZ3) | 0.998 ± 0.031
LYAR (UniProt Q9NX58) | 1.13 ± 0.054
UniProt Q9NUB1 and related entries | 0.882 ± 0.081
HECA (UniProt Q9UBI9) | 1 ± 0.017
PHPT1 (UniProt Q9NRX4) | 0.991 ± 0.03
TMEM9B (UniProt Q9NQ34) | 1.05 ± 0.028
UniProt Q9NRP2 and related entries | 1.09 ± 0.18
UniProt Q9NQY0 and related entries | 1.06 ± 0.053
UniProt Q9P0J0 and related entries | 0.851 ± 0.095
UniProt Q9NYF8 and related entries | 1.19 ± 0.08

Target | NP40-soluble protein abundance
UniProt Q9NWF9 and related entries | 1.01 ± 0.029
NANS (UniProt Q9NR45) | 0.932 ± 0.043
DNAJC17 (UniProt Q9NVM6) | 1.07 ± 0.041
UniProt Q9NZB8 and related entries | 0.941 ± 0.017
UniProt Q9NV56 | 1.07 ± 0.05
UniProt Q9NUL5 and related entries | 1.1 ± 0.13
CPSF2 (UniProt Q9P2I0) | 1 ± 0.053
NSMCE4A (UniProt Q9NXX6) | 0.945 ± 0.067
UniProt Q9NZJ7 and related entries | 1.01 ± 0.041
MRPL40 (UniProt Q9NQ50) | 1.05 ± 0.057
LANCL2 (UniProt Q9NS86) | 0.954 ± 0.019
UniProt Q9NV88 and related entries | 0.965 ± 0.082
LARS (UniProt Q9P2J5) | 0.881 ± 0.17
UniProt Q9UBL3 and related entries | 0.985 ± 0.016
IMPAD1 (UniProt Q9NX62) | 1.03 ± 0.08
FBXO28 (UniProt Q9NVF7) | 1.09 ± 0.051
MPP6 (UniProt Q9NZW5) | 0.972 ± 0.059
UniProt Q9NZT2 and related entries | 1.07 ± 0.1

same assay, conditions: concentration: 4mM

Target | NP40-soluble protein abundance
COMMD9 (UniProt Q9P000) | 1.018 ± 0.0086
TMEM160 (UniProt Q9NX00) | 0.986 ± 0.025
ACTR10 (UniProt Q9NZ32) | 0.988 ± 0.054
DHCR7 (UniProt Q9UBM7) | 1.04 ± 0.081
UniProt Q9NYU2 and related entries | 0.955 ± 0.034
DDX18 (UniProt Q9NVP1) | 1.16 ± 0.046
UniProt Q9P2D3 and related entries | 0.996 ± 0.04
MTPAP (UniProt Q9NVV4) | 0.871 ± 0.042
NECAP2 (UniProt Q9NVZ3) | 0.982 ± 0.017
LYAR (UniProt Q9NX58) | 1.07 ± 0.097
UniProt Q9NUB1 and related entries | 0.955 ± 0.02
HECA (UniProt Q9UBI9) | 1.02 ± 0.049
PHPT1 (UniProt Q9NRX4) | 0.949 ± 0.039
TMEM9B (UniProt Q9NQ34) | 1.01 ± 0.057
UniProt Q9NRP2 and related entries | 0.978 ± 0.032
UniProt Q9NQY0 and related entries | 1.05 ± 0.073
UniProt Q9P0J0 and related entries | 0.89 ± 0.021
UniProt Q9NYF8 and related entries | 1.19 ± 0.033

Target | NP40-soluble protein abundance
UniProt Q9NWF9 and related entries | 0.987 ± 0.032
NANS (UniProt Q9NR45) | 0.939 ± 0.011
DNAJC17 (UniProt Q9NVM6) | 1.1 ± 0.068
UniProt Q9NZB8 and related entries | 0.967 ± 0.042
UniProt Q9NV56 | 1.01 ± 0.092
UniProt Q9NUL5 and related entries | 1.07 ± 0.011
CPSF2 (UniProt Q9P2I0) | 1.03 ± 0.027
NSMCE4A (UniProt Q9NXX6) | 0.967 ± 0.056
UniProt Q9NZJ7 and related entries | 0.99 ± 0.023
MRPL40 (UniProt Q9NQ50) | 0.98 ± 0.064
LANCL2 (UniProt Q9NS86) | 0.982 ± 0.032
UniProt Q9NV88 and related entries | 1.01 ± 0.036
LARS (UniProt Q9P2J5) | 0.925 ± 0.11
UniProt Q9UBL3 and related entries | 0.997 ± 0.025
IMPAD1 (UniProt Q9NX62) | 0.978 ± 0.044
FBXO28 (UniProt Q9NVF7) | 1.075 ± 0.0055
MPP6 (UniProt Q9NZW5) | 1 ± 0.027
UniProt Q9NZT2 and related entries | 1.05 ± 0.03
